{"source": "PubChem BioAssay AID1347075", "about": "(National Center for Advancing Translational Sciences (NCATS), 2019)", "note": "The whole screen tested about 400,000 compounds, of which about 5,500 (1.4%) were called active. Inconclusive means that the source gave no clear call. Such entries were picked first, then a sample of the others. Calls follow the shape of the dose curve; as a rule, active = well fitted cell-killing curve with a large enough effect; inconclusive = small, poorly fitted or top-dose-only effect, or effect the other way; inactive = flat fitted curve, though single readings scatter. A potency beside an inconclusive call is a rough fit, not a confirmed value. % is scaled to controls: 0 for no effect and ±100 for the full control effect; potency is read from the fitted curve at half-maximal effect."}
{"assay": "qHTS assay for MDR1-selective chemotherapeutics: Primary screen using the parental adenocarcinoma cell KB-3-1; also: nearly all actives have a fitted effect of over 60% in size", "details": "KB-3-1 viability, CellTiter-Glo ATP luminescence, 72 h; activity change, negative = cytotoxic: at 46.1 µM (top of the series)", "how_it_was_run": "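KB-3-1 cells, DMEM (no phenol red) + 10% FBS; compound by pin transfer, 72 h, 37 °C. Readout: CellTiter-Glo luminescence after 10 min. Data normalized, curve-fitted.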"}
{"molecule": "O=C(NC1CCCC1)c1sc(=S)n2c1[nH]c(=O)c1ccccc12", "Potency": "active: 11.6 µM"}
{"molecule": "COc1ccc(NC(=O)C2CCCN(S(=O)(=O)c3ccc(Br)s3)C2)cc1", "note": "(stereo not drawn)", "Potency": "inactive"}
{"molecule": "CCCc1cc(C(=O)N/N=C/c2ccc(CC)s2)c2ccccc2n1", "Potency": "inconclusive: 1.64 µM [cytotoxic, full curve, poor fit]"}
{"molecule": "CC1OC(CC(=O)O)CC2=C1C(=O)c1c(O)cccc1C2=O", "note": "(stereo not drawn)", "Potency": "active: 3.66 µM"}
{"molecule": "COc1ccc(C2SCC(=O)N2CCc2ccc(OC)c(OC)c2)cc1", "note": "(stereo not drawn)", "Potency": "inconclusive: 5.17 µM [cytotoxic, full curve, poor fit]"}
{"molecule": "NC(CO)C(=O)NNCc1ccc(O)c(O)c1O", "note": "(stereo not drawn)", "Potency": "inconclusive: 29.1 µM [cytotoxic, single point]"}
{"molecule": "Cc1cc(C(=O)C(C)Sc2cccc[n+]2[O-])c(C)n1-c1ccc(Cl)cc1", "note": "(stereo not drawn)", "Potency": "inconclusive: 20.6 µM [cytotoxic, single point]"}
{"molecule": "O=C(c1cnn(-c2ccc(F)cc2)c1-n1cccc1)N1CCN(c2ccc(F)cc2)CC1", "Potency": "inconclusive: 20.6 µM [cytotoxic, single point]"}
{"molecule": "CC(C)c1nc2c([nH]1)c(=O)n(C)c(=O)n2C", "activity change, negative = cytotoxic": "inconclusive: 15.6%"}
{"molecule": "O=C(Nc1ccc(N2CCN(C(=O)c3ccccc3)CC2)c(Cl)c1)c1ccc(Br)o1", "Potency": "inconclusive: 23.1 µM [cytotoxic, partial curve, poor fit]"}
{"molecule": "Cc1sc(NC(=O)c2cc(-c3ccccc3)nc3ccccc23)c(C(N)=O)c1C", "Potency": "inconclusive: 1.3 µM [rising, full curve, poor fit]"}
{"molecule": "CCOC(=O)C1C(=O)CC(C)(O)C(C(=O)OCC)C1c1cccc(OC(F)(F)C(F)F)c1", "note": "(stereo not drawn)", "Potency": "inconclusive: 29.1 µM [cytotoxic, single point]"}
{"molecule": "O=C(OCC(=O)N1CCN(c2ccccc2)CC1)C1=COCCO1", "Potency": "inconclusive: 32.6 µM [cytotoxic, partial curve, poor fit]"}
{"molecule": "CCOC(=O)N1CCc2c(sc(NC(=O)CN(CC)CC)c2C#N)C1", "Potency": "inactive"}
{"molecule": "CCN(CC)C1=CC(=[N+]2CCCC2)CC(C)(C)C1", "Potency": "inconclusive: 9.2 µM [cytotoxic, partial curve, poor fit]"}
{"molecule": "CCc1nnc(NC(=O)CSc2nc3c(c(=O)n2-c2ccccc2OC)SCC3)s1", "Potency": "inconclusive: 29.1 µM [cytotoxic, single point]"}
{"molecule": "CC(=O)Nc1ccc(-c2csc(NC(=O)Nc3ccccc3)n2)cc1", "Potency": "inconclusive: 16.4 µM [cytotoxic, single point]"}
{"molecule": "Cc1ccc(S(=O)(=O)c2nc(S(C)(=O)=O)sc2N2CCCCC2C)cc1", "note": "(stereo not drawn)", "Potency": "inconclusive: 5.8 µM [cytotoxic, full curve]"}
{"molecule": "COc1ccccc1Nc1sc(C(=O)c2ccc(C)cc2C)c(N)c1S(=O)(=O)c1ccccc1", "Potency": "inconclusive: 18.4 µM [cytotoxic, single point]"}
{"molecule": "Cc1ccc(OCCNC(=O)c2cccc(S(=O)(=O)N3CCN(Cc4ccccc4)CC3)c2)cc1", "Potency": "inconclusive: 16.4 µM [cytotoxic, single point]"}
{"molecule": "Cc1c(C(=O)N2CCN(Cc3ccc4c(c3)OCO4)CC2)sc2ncnc(N3CCN(c4ccccc4F)CC3)c12", "Potency": "inconclusive: 2.91 µM [cytotoxic, partial curve, poor fit]"}
{"molecule": "COc1ccc(NC(=S)NCCc2c(C)[nH]c3ccc(OC)cc23)cc1", "Potency": "inactive"}
{"molecule": "Cc1cc(=O)n(Cc2ccccc2)c(O)c1C#N", "Potency": "inactive"}
{"molecule": "O=C(Nc1ccc2c(c1)oc1ccccc12)c1ccc(Br)o1", "Potency": "inconclusive: 29.1 µM [cytotoxic, single point]"}
{"molecule": "CN1OC[C@@H]2CN(Cc3ccc(Cl)cc3)[C@H](c3ccc(-n4ccnc4)cc3)C[C@@H]21", "Potency": "inconclusive: 16.4 µM [cytotoxic, single point]"}
{"molecule": "COc1ccc(-c2nnc(SC(C(=O)c3c[nH]c4ccccc34)c3ccccc3)n2N)cc1OC", "note": "(stereo not drawn)", "Potency": "inconclusive: 1.64 µM [rising, full curve]"}
{"molecule": "COc1ccc(Cn2cnc3c(N)c(C)c(C)cc32)cc1", "Potency": "inactive"}
{"molecule": "CCc1ccccc1NC(=S)NCC1CCN(c2ccc(OC)cc2)C1", "note": "(stereo not drawn)", "Potency": "inconclusive: 29.1 µM [cytotoxic, single point]"}
{"molecule": "COc1ccc([N+](=O)[O-])cc1NC(=O)C(C)N(C)Cc1cccc(OC)c1OC", "note": "(stereo not drawn)", "Potency": "inactive"}
{"molecule": "O=C1CC(c2cccc([N+](=O)[O-])c2)c2cc3c(cc2N1)CCC3", "note": "(stereo not drawn)", "Potency": "inconclusive: 16.4 µM [cytotoxic, partial curve, poor fit]"}
{"molecule": "OC(c1ccc(Cl)c(F)c1)c1ncc(-c2ccc(Oc3ccccc3)cc2)[nH]1", "note": "(stereo not drawn)", "Potency": "inconclusive: 29.1 µM [cytotoxic, single point]"}
{"molecule": "Cc1cccc2cc(C#N)c(N3CCN(C)CC3)nc12", "Potency": "inactive"}
{"molecule": "c1ccc(-c2cc(-c3nnco3)c3ccccc3n2)nc1", "Potency": "inconclusive: 18.4 µM [rising, partial curve]"}
{"molecule": "O=C(c1ccccc1OCc1ccccc1Br)N1CCN(c2ncccn2)CC1", "Potency": "inconclusive: 29.1 µM [cytotoxic, single point]"}
{"molecule": "COc1ccc(CNc2nc3c(-c4ccccc4)nnn3c3ccccc23)cc1", "Potency": "inactive"}
{"molecule": "Cc1cc(C)c2c(N)c(C(=O)N3CCN(c4ncccn4)CC3)sc2n1", "Potency": "inconclusive: 9.2 µM [rising, partial curve, poor fit]"}
{"molecule": "O=c1cc(CN2CCN(c3ccccc3)CC2)c2ccccc2o1", "Potency": "inactive"}
{"molecule": "Cc1ccc(-c2cnc3cc(C)nn3c2)cc1", "Potency": "inactive"}
{"molecule": "O=C(C[n+]1cccc(Br)c1)c1ccc2ccccc2c1", "Potency": "inconclusive: 2.06 µM [cytotoxic, full curve, poor fit]"}
{"molecule": "Cc1cc(C)c2c(=O)n(CC(=O)NCCCN3CCN(c4ccccc4F)CC3)sc2n1", "Potency": "inconclusive: 20.6 µM [cytotoxic, single point]"}
{"molecule": "Cc1cccc(N2CCN(C(=O)c3ccc4nc(N5CCCCC5)sc4c3)CC2)c1C", "Potency": "inconclusive: 25.9 µM [cytotoxic, single point]"}
{"molecule": "O=C(CSCn1nnc2c(=O)[nH]c(Cc3ccc(F)cc3)nc21)Nc1cccc(C(F)(F)F)c1", "Potency": "inactive"}
{"molecule": "CCc1ccc(CN2CCC(n3nccc3NC(=O)c3ccccc3C)CC2)cc1", "Potency": "inconclusive: 29.1 µM [cytotoxic, single point]"}
